Measured values reported in paper PMC8384837.
Changes are numbered by the printed parent chain. The list shows a part of the results. For some assays here: At the low end of the ranking the order means little.

Experiments:
Conditions in all cases: yeast three-hybrid, YBZ-1, SC-Leu-His + 0.5 mM 3-AT, 4 days
[1] = target: T1, PUM1 PUF domain R4-ALC N971A + H972L + Q975C (Homo sapiens) (UniProt Q14671)
T1 sequence: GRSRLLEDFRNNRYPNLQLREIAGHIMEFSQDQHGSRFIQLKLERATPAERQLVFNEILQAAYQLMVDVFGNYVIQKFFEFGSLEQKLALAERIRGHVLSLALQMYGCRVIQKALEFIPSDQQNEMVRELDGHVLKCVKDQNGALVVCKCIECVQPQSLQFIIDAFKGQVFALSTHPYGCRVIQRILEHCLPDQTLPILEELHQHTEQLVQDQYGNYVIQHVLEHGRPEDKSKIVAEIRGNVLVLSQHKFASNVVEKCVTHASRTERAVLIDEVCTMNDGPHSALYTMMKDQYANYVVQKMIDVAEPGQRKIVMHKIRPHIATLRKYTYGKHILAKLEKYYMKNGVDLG

[2] = target: T2, PUM1 PUF domain R4-ALG N971A + H972L + Q975G (Homo sapiens) (UniProt Q14671)
T2 sequence: T1 sequence with C148G

[3] = target: T3, PUM1 PUF domain R4-ALS N971A + H972L + Q975S (Homo sapiens) (UniProt Q14671)
T3 sequence: T1 sequence with C148S

[4] = target: T4, PUM1 PUF domain R4-DRI N971D + H972R + Q975I (Homo sapiens) (UniProt Q14671)
T4 sequence: T1 sequence with A144D, L145R, C148I

[5] = target: T5, PUM1 PUF domain R4-EPG N971E + H972P + Q975G (Homo sapiens) (UniProt Q14671)
T5 sequence: T1 sequence with A144E, L145P, C148G

[6] = target: T6, PUM1 PUF domain R4-GPH N971G + H972P + Q975H (Homo sapiens) (UniProt Q14671)
T6 sequence: T1 sequence with A144G, L145P, C148H

[7] = target: T7, PUM1 PUF domain R4-IML N971I + H972M + Q975L (Homo sapiens) (UniProt Q14671)
T7 sequence: T1 sequence with A144I, L145M, C148L

[8] = target: T8, PUM1 PUF domain R4-SLS N971S + H972L + Q975S (Homo sapiens) (UniProt Q14671)
T8 sequence: T1 sequence with A144S, C148S

[9] = target: T9, PUM1 PUF domain R4-SQS N971S + H972Q + Q975S (Homo sapiens) (UniProt Q14671)
T9 sequence: T1 sequence with A144S, L145Q, C148S

[10] = target: T10, PUM1 PUF domain R4-SWG N971S + H972W + Q975G (Homo sapiens) (UniProt Q14671)
T10 sequence: T1 sequence with A144S, L145W, C148G

[11] = target: T11, PUM1 PUF domain R4-TAQ N971T + H972A (Homo sapiens) (UniProt Q14671)
T11 sequence: T1 sequence with A144T, L145A, C148Q

[12] = target: T12, PUM1 PUF domain R4-VGL N971V + H972G + Q975L (Homo sapiens) (UniProt Q14671)
T12 sequence: T1 sequence with A144V, L145G, C148L

[13] = target: T13, PUM1 PUF domain R3-APV C935A + R936P + Q939V (UniProt Q14671)
T13 sequence: T1 sequence with C108A, R109P, Q112V, A144N, L145H, C148Q

[14] = target: T14, PUM1 PUF domain R3-CPG R936P + Q939G (UniProt Q14671)
T14 sequence: T1 sequence with R109P, Q112G, A144N, L145H, C148Q

[15] = target: T15, PUM1 PUF domain R3-RAD C935R + R936A + Q939D (UniProt Q14671)
T15 sequence: T1 sequence with C108R, R109A, Q112D, A144N, L145H, C148Q

[16] = target: T16, PUM1 PUF domain R3-RAL C935R + R936A + Q939L (UniProt Q14671)
T16 sequence: T1 sequence with C108R, R109A, Q112L, A144N, L145H, C148Q

[17] = target: T17, PUM1 PUF domain R3-RQL C935R + R936Q + Q939L (UniProt Q14671)
T17 sequence: T1 sequence with C108R, R109Q, Q112L, A144N, L145H, C148Q

[18] = target: T18, PUM1 PUF domain R3-RQV C935R + R936Q + Q939V (UniProt Q14671)
T18 sequence: T1 sequence with C108R, R109Q, Q112V, A144N, L145H, C148Q

[19] = target: T19, PUM1 PUF domain R3-SRW C935S + Q939W (UniProt Q14671)
T19 sequence: T1 sequence with C108S, Q112W, A144N, L145H, C148Q

[20] = target: T20, PUM1 PUF domain R3-VRK C935V + Q939K (UniProt Q14671)
T20 sequence: T1 sequence with C108V, Q112K, A144N, L145H, C148Q

Sequence	binding signal (log2 enrichment (interaction score)) [1]	binding signal (log2 enrichment (interaction score)) [2]	binding signal (log2 enrichment (interaction score)) [3]	binding signal (log2 enrichment (interaction score)) [4]	binding signal (log2 enrichment (interaction score)) [5]	binding signal (log2 enrichment (interaction score)) [6]	binding signal (log2 enrichment (interaction score)) [7]	binding signal (log2 enrichment (interaction score)) [8]	binding signal (log2 enrichment (interaction score)) [9]	binding signal (log2 enrichment (interaction score)) [10]	binding signal (log2 enrichment (interaction score)) [11]	binding signal (log2 enrichment (interaction score)) [12]	binding signal (log2 enrichment (interaction score)) [13]	binding signal (log2 enrichment (interaction score)) [14]	binding signal (log2 enrichment (interaction score)) [15]	binding signal (log2 enrichment (interaction score)) [16]	binding signal (log2 enrichment (interaction score)) [17]	binding signal (log2 enrichment (interaction score)) [18]	binding signal (log2 enrichment (interaction score)) [19]	binding signal (log2 enrichment (interaction score)) [20]
GGCUAGAACUAGUGGAUCCCCCGGCGCCCGGCGGCUCGAGCCCGGGUAAGUGUACAUAGUCUGCAUGCCGCCGGGCGCCAUGCCUGCAGGUCGACUCUAGAAAACAUG	-3.44	-2.39	-4.38	-2.66	-2.67	< -4.99	-2.5	-4.85	-3.79	-4.67	-2.63	-2.95								
GGCUAGAACUAGUGGAUCCCCCGGCGCCCGGCGGCUCGAGCCCGGGUAAGUGUAAGUAGUCUGCAUGCCGCCGGGCGCCAUGCCUGCAGGUCGACUCUAGAAAACAUG													-2.69	-2.16	-2.76	-2.47	-2.18	-3.34	-2.1	-2.99
